Source: PubChem BioAssay AID1259308 (NCATS, 2017)
Here is a random part of about 59,000 reagents. About 1,510 of them (2.6%) were called active. 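Calls use total luciferase alone and ignore viability, so some active siRNAs may act by altering cell number.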 The numbers tell different reagents against one gene apart. Not all columns of the deposit are shown.

Purpose: 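Candidate targets for better recombinant protein yield in mammalian cells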 (primary screen)
System: human HEK293 embryonic kidney cells stably expressing firefly luciferase (HEK-CMV-Luc2-Hygro)
Reagent: single siRNA against human genes, 0.8 pmol siRNA per well
Timing: 72 h
Measured: 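Luciferase light (ONE-Glo) measured on one replicate plate set and viability (CellTiter-Glo) on the other, scaled to a negative control siRNA, with robust z-scores and luciferase per cell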
Reading the numbers: total luciferase, z-score and total luciferase, % of control: higher = more reporter protein produced
Rule for the call: 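Active when the median/MAD z-score for overall luciferase is greater than 3; a gene was taken forward for validation with new siRNAs if at least two of its three siRNAs passed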
Meaning of the calls: active = raised luciferase; inactive = no rise

For NRG3 (neuregulin 3) #1, how do the results read?
total luciferase, z-score: 0.933; total luciferase, % of control: 100; Outcome: inactive

What did the screen give for NRG3 (neuregulin 3) #2?
total luciferase, z-score: -1.39; total luciferase, % of control: 54.2; Outcome: inactive

What did the screen give for NRG3 (neuregulin 3) #3?
total luciferase, z-score: 2.68; total luciferase, % of control: 135; Outcome: inactive

With RNF103 (ring finger protein 103) #1, what does the deposit list?
total luciferase, z-score: 0.748; total luciferase, % of control: 96.8; Outcome: inactive

With RNF103 (ring finger protein 103) #2, what does the deposit list?
total luciferase, z-score: -0.335; total luciferase, % of control: 75.2; Outcome: inactive

With RNF103 (ring finger protein 103) #3, what does the deposit list?
total luciferase, z-score: 0.338; total luciferase, % of control: 88.6; Outcome: inactive

With RRAGC (Ras related GTP binding C) #1, what was measured?
total luciferase, z-score: 0.2; total luciferase, % of control: 85.9; Outcome: inactive

Which result is listed for RRAGC (Ras related GTP binding C) #2?
total luciferase, z-score: 0.314; total luciferase, % of control: 88.1; Outcome: inactive

For RRAGC (Ras related GTP binding C) #3, what was measured?
total luciferase, z-score: -0.933; total luciferase, % of control: 63.3; Outcome: inactive

What is on record for PDCD1LG2 (programmed cell death 1 ligand 2) #1?
total luciferase, z-score: -0.0808; total luciferase, % of control: 80.3; Outcome: inactive

Which result is listed for PDCD1LG2 (programmed cell death 1 ligand 2) #2?
total luciferase, z-score: 1.35; total luciferase, % of control: 109; Outcome: inactive

Which result is listed for PDCD1LG2 (programmed cell death 1 ligand 2) #3?
total luciferase, z-score: -0.373; total luciferase, % of control: 74.5; Outcome: inactive

With PRRT1 (proline rich transmembrane protein 1) #1, what was measured?
total luciferase, z-score: 0.252; total luciferase, % of control: 86.9; Outcome: inactive

Which result is listed for PRRT1 (proline rich transmembrane protein 1) #2?
total luciferase, z-score: 1.08; total luciferase, % of control: 103; Outcome: inactive

Which result is listed for PRRT1 (proline rich transmembrane protein 1) #3?
total luciferase, z-score: -0.325; total luciferase, % of control: 75.4; Outcome: inactive

For MAP3K20 (mitogen-activated protein kinase kinase kinase 20) #1, how do the results read?
total luciferase, z-score: 0.2; total luciferase, % of control: 85.9; Outcome: inactive

With MAP3K20 (mitogen-activated protein kinase kinase kinase 20) #2, what was measured?
total luciferase, z-score: -0.898; total luciferase, % of control: 64; Outcome: inactive

How did the screen score MAP3K20 (mitogen-activated protein kinase kinase kinase 20) #3?
total luciferase, z-score: -1.57; total luciferase, % of control: 50.7; Outcome: inactive

With PABPC4 (poly(A) binding protein cytoplasmic 4) #1, how do the results read?
total luciferase, z-score: -0.761; total luciferase, % of control: 66.7; Outcome: inactive

Which result is listed for PABPC4 (poly(A) binding protein cytoplasmic 4) #2?
total luciferase, z-score: -0.733; total luciferase, % of control: 67.3; Outcome: inactive

What is on record for PABPC4 (poly(A) binding protein cytoplasmic 4) #3?
total luciferase, z-score: -0.619; total luciferase, % of control: 69.6; Outcome: inactive

For DIRAS2 (DIRAS family GTPase 2) #1, how do the results read?
total luciferase, z-score: 0.458; total luciferase, % of control: 91; Outcome: inactive

For DIRAS2 (DIRAS family GTPase 2) #2, how do the results read?
total luciferase, z-score: 0.473; total luciferase, % of control: 91.3; Outcome: inactive

What is on record for DIRAS2 (DIRAS family GTPase 2) #3?
total luciferase, z-score: -2.19; total luciferase, % of control: 38.3; Outcome: inactive

What is on record for HOXB4 (homeobox B4) #1?
total luciferase, z-score: 0.171; total luciferase, % of control: 85.3; Outcome: inactive

With HOXB4 (homeobox B4) #2, what was measured?
total luciferase, z-score: 0.563; total luciferase, % of control: 93.1; Outcome: inactive

For HOXB4 (homeobox B4) #3, what does the deposit list?
total luciferase, z-score: -0.108; total luciferase, % of control: 79.7; Outcome: inactive

Which result is listed for CLCN6 (Cl-/H+ antiporter 6) #1?
total luciferase, z-score: 0.117; total luciferase, % of control: 84.2; Outcome: inactive

With CLCN6 (Cl-/H+ antiporter 6) #2, what does the deposit list?
total luciferase, z-score: -0.0334; total luciferase, % of control: 81.2; Outcome: inactive

For CLCN6 (Cl-/H+ antiporter 6) #3, what does the deposit list?
total luciferase, z-score: -0.419; total luciferase, % of control: 73.6; Outcome: inactive

What is on record for STK16 (serine/threonine kinase 16) #1?
total luciferase, z-score: -0.426; total luciferase, % of control: 73.4; Outcome: inactive

Which result is listed for STK16 (serine/threonine kinase 16) #2?
total luciferase, z-score: 0.445; total luciferase, % of control: 90.7; Outcome: inactive

How did the screen score STK16 (serine/threonine kinase 16) #3?
total luciferase, z-score: -0.605; total luciferase, % of control: 69.8; Outcome: inactive

Entries above whose gene name begins with P or p:
PDCD1LG2 (programmed cell death 1 ligand 2) #1 — total luciferase, z-score: -0.0808; total luciferase, % of control: 80.3; Outcome: inactive
PDCD1LG2 (programmed cell death 1 ligand 2) #2 — total luciferase, z-score: 1.35; total luciferase, % of control: 109; Outcome: inactive
PDCD1LG2 (programmed cell death 1 ligand 2) #3 — total luciferase, z-score: -0.373; total luciferase, % of control: 74.5; Outcome: inactive
PRRT1 (proline rich transmembrane protein 1) #1 — total luciferase, z-score: 0.252; total luciferase, % of control: 86.9; Outcome: inactive
PRRT1 (proline rich transmembrane protein 1) #2 — total luciferase, z-score: 1.08; total luciferase, % of control: 103; Outcome: inactive
PRRT1 (proline rich transmembrane protein 1) #3 — total luciferase, z-score: -0.325; total luciferase, % of control: 75.4; Outcome: inactive
PABPC4 (poly(A) binding protein cytoplasmic 4) #1 — total luciferase, z-score: -0.761; total luciferase, % of control: 66.7; Outcome: inactive
PABPC4 (poly(A) binding protein cytoplasmic 4) #2 — total luciferase, z-score: -0.733; total luciferase, % of control: 67.3; Outcome: inactive
PABPC4 (poly(A) binding protein cytoplasmic 4) #3 — total luciferase, z-score: -0.619; total luciferase, % of control: 69.6; Outcome: inactive
